Results from US20020115599A1.
Results are given in words; binding and its absence hold for the method and conditions named. Some binding calls cover weakened binding; strength is not graded here. Sequences can lack the tags named with a protein.

Molecular target: T1, GST-Xklp2-tail (glutathione-S-transferase fusion protein containing the COOH-terminal domain of Xklp2) (Xenopus) (UniProt Q91785)
T1 sequence (looked up): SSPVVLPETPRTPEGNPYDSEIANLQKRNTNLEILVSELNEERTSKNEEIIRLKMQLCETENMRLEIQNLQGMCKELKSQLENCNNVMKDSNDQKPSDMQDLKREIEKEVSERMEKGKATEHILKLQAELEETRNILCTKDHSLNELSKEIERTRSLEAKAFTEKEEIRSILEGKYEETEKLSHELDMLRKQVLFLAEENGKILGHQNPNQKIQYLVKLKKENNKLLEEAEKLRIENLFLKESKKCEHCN
Experiment: worded summary in Example 4; the experiment is TPX2-mediated co-sedimentation of GST-Xklp2-tail with microtubules

B1: TPX2 (targeting protein for Xklp2), native Xenopus laevis protein purified from or present in egg extract and XL177 cells (protein)
chain: MEDTQDTYSYDAPSIFNFSSFHEDHNADSWFDQVTNAENIPPDQRRLSETSVNTEQNSKVQPVQTTPSKDDVSNSATHVCDVKSQSKRSSRRMSKKHRQKLLVKMKDTHLEKETAPPEYPPCKKLKGSSSKGRHAPVIKSQSTSSHHSMTSPKPKAQLTMPSTPTVLKRRNVLVKAKNSEEQELEKMQELQKEMLENLKKNEHSMKVAITGAGQPVKTFIPVTKPVDFHFKTDDRLKRTANQPEGDGYKAVDFASELRKHPPSPVQVTKGGHTVPKPFNLSKGKRKHEEASDYVSTAEQVIAFYKRTPARYHLRSRQREMEGPSPVKMIKTKLTNPKTPLLQTKGRHRPVTCKSAAELEAEELEMINQYKFKAQELEELEMINQPVLLKKPLVKEPTKAIGFDLEIEKRIQQREKKEEIEEETFTFHSRPCPSKMLTDVVGVPLKKLLPVTVPQSPAFALKNRVRIPAQEEKEEMVPVIKATRMPHYGVPFKPKLVEQRQVDVCPFSFCDRDKERQLQKEKRLDELRKDEVPKFKAQPLPQFDNIRLPEKKVKMPTQQEPFDLEIEKRGASKLQRWQQQIQEELKQQKEMVVFKARPNTVVHQEPFVPKKENRSLTESLSGSIVQEGFELATAKRAKERQEFDKCLAETEAQKSLLEEEIRKRREEEEKEEISQLRQELVHKAKPIRKYRAVEVKASDVPLTVPRSPNFSDRFKC
modifications: phosphorylated in mitotic extract (sites not determined)
**Q.** Which binding does the source give for B1 here?
**A.** binds
